Screen size: about 300,000 compounds; about 5,400 (1.8%) were called active. This list was built around the results that the source calls inconclusive (neither active nor inactive); the mix of calls is not that of the screen. Calls follow the shape of the full dose curve; tested in HEK293 cells. Where the call is inconclusive, the potency comes from a doubtful curve fit.
Test: qHTS for inhibitors of binding or entry into cells for Marburg Virus
Settings: Marburg virus pseudotyped entry inhibition, cell reporter; activity change, negative = inhibition: at 37.8 µM (top of the series) unless noted
% is scaled to controls: 0 for no effect and ±100 for the full control effect; potency is read from the fitted curve at half-maximal effect.

| Structure (SMILES) | activity change, negative = inhibition | Potency |
| --- | --- | --- |
| COc1ccc(NC(=O)c2cc(-c3cccs3)on2)c(OC)c1 | inactive: -6.03% [at 46.1 µM] | – |
| COc1ccc(C(=O)/C(=C/O)N=Nc2ccc(F)cc2)cc1 | – | inconclusive: 7.08 µM [inhibitor, partial curve, poor fit] |
| COC(=O)c1cc2c(C)nn(-c3ccccc3)c2s1 | – | inactive |
| CCOc1cc(C(=O)Nc2ccc3c4c(cccc24)C(=O)N3CC)cc(OCC)c1OCC | – | active: 18.3 µM |
| CCN1CCN(CC(=O)N2N=CCC2c2ccccc2)CC1 (stereo not given) | inactive: 21.4% [at 46.1 µM] | – |
| COc1ccc(C(C)=NNc2ccc([N+](=O)[O-])cc2S(=O)(=O)Nc2ccccc2C(=O)O)c(OC)c1 | – | inconclusive: 35.5 µM [inhibitor, single point] |
| Cc1ccc(CN2CCN(CC(=O)NCc3ccccc3Cl)C2=O)cc1 | inactive: 0.628% [at 46.1 µM] | – |
| O=C(NNC(=O)c1ccccc1Cl)c1ccco1 | – | inconclusive: 10 µM [activator, partial curve, poor fit] |
| O=C1CCC(C(=O)Nc2cccc(S(=O)(=O)Nc3ccccc3F)c2)=NN1 | – | inconclusive: 35.5 µM [inhibitor, partial curve, poor fit] |
| COc1ccc(NC(=O)CO/N=C(\C)c2cccs2)cc1 | inactive: -1.97% [at 46.1 µM] | – |
| Cc1cc(C)n(-c2nc3ccccc3nc2Nc2cc(C(=O)O)ccc2C)n1 | inactive: -14% [at 46.1 µM] | – |
| Cc1cc(C(=O)NCCc2ccccc2)ccc1[N+](=O)[O-] | inactive: 17.6% | – |
| CCOC(=O)c1c(-c2ccco2)csc1NC(=O)CSc1nnc(N)s1 | inactive: -15.1% | – |
| CN1CCN(C2=Nc3c(Cl)cc(Cl)c4cccc2c34)CC1 | – | inconclusive: 11.6 µM [inhibitor, partial curve, poor fit] |
| COC(=O)c1ccccc1NC(=O)Cn1c(=O)n(-c2ccc(Cl)cc2)c(=O)c2c(C)c(C)sc21 | – | inconclusive: 5.62 µM [inhibitor, single point] |
| CCN(CC)CCNC(=O)c1ccc(NC(=O)c2ccc(COc3ccccc3)cc2)cc1 | – | inconclusive: 11.2 µM [inhibitor, single point] |
| Clc1ccc(-n2ncc3c(NCc4ccc5c(c4)OCO5)ncnc32)cc1 | – | inconclusive: 15.8 µM [activator, single point] |
| COc1ccc(S(=O)(=O)N(CCCN2CCCC2=O)Cc2cc3cc(C)c(C)cc3[nH]c2=O)cc1 | inactive: -7.92% | – |
| COc1ccc(/C=C/c2noc(-c3ccccc3O)n2)cc1OC | inactive: -4.78% [at 46.1 µM] | – |
| CCOC(=O)C(C)Sc1nc2c(c(=O)[nH]c(=O)n2C)n1CCc1ccccc1 (stereo not given) | – | inconclusive: 12.6 µM [inhibitor, single point] |
| COc1ccc(OC(=O)COc2cccc(C)c2)cc1 | inactive: -0.329% [at 46.1 µM] | – |
| CC(=O)N1CCN(c2ccc(Oc3ccc([N+](=O)[O-])c(C(F)(F)F)c3)cc2)CC1 | – | inconclusive: 11.2 µM [inhibitor, single point] |
| COc1ccc(/C=C/c2noc(-c3ccccc3O)n2)cc1 | – | inconclusive: 10 µM [inhibitor, partial curve, poor fit] |
| COc1cccc(CNC(=O)COC(=O)c2ccc(C(=O)c3ccccc3)cc2)c1 | – | inconclusive: 25.1 µM [activator, single point] |

Individual results from the list:
Clc1ccc(-n2ncc3c(NCc4ccc5c(c4)OCO5)ncnc32)cc1 | Potency: inconclusive: 15.8 µM [activator, single point]
O=C(NNC(=O)c1ccccc1Cl)c1ccco1 | Potency: inconclusive: 10 µM [activator, partial curve, poor fit]

Continued:

| Structure (SMILES) | activity change, negative = inhibition | Potency |
| --- | --- | --- |
| Cc1c(NC(=O)/C=C/c2cn(-c3ccccc3)nc2-c2ccc(F)cc2)c(=O)n(-c2ccccc2)n1C | inactive: -0.801% | – |
| c1csc(CSc2nc3ccccc3s2)c1 | – | inconclusive: 1.83 µM [activator, partial curve, poor fit] |
| COc1cc(C2c3c(oc4ccccc4c3=O)C(=O)N2c2nnc(C(C)C)s2)cc(OC)c1OC (stereo not given) | – | inconclusive: 35.5 µM [activator, single point] |
| CCOC(=O)c1cc(OCC(=O)NC(C)C(C)C)cc(C(=O)OCC)c1 (stereo not given) | – | inconclusive: 3.55 µM [activator, partial curve, poor fit] |
| Cn1c(=O)c2c(nc(CN3CCOCC3)n2CCc2ccccc2)n(C)c1=O | inactive: 12.2% | – |
| CCN(CC)Cc1c(O)ccc2occ(C(=O)c3ccc(OC)cc3)c12 | – | inconclusive: 35.5 µM [inhibitor, single point] |
| CC12CCC(=O)N1C(C(=O)Nc1cc(C(F)(F)F)ccc1N1CCCCC1)CS2 (stereo not given) | – | inconclusive: 35.5 µM [inhibitor, single point] |
| CCSc1ncc(Cl)c(C(=O)Nc2c(C(=O)Nc3ccc(Cl)cc3)oc3ccccc23)n1 | – | inconclusive: 25.1 µM [activator, single point] |
| O=C(c1ccc2c(c1)N(Cc1ccccc1)C(=O)c1ccccc1S2(=O)=O)N1CCN(c2ccccn2)CC1 | – | active: 3.55 µM |
| CC1=NN(c2ccccc2)C(=O)C1C(=O)c1ccccc1 (stereo not given) | – | inconclusive: 2.51 µM [inhibitor, full curve, poor fit] |
| O=c1[nH]c2ccccc2[n+]([O-])c1-c1ccccc1 | inactive: 2.82% [at 46.1 µM] | – |
| CCc1nnc(N/N=C/c2cc(Br)c(O)cc2O)n1N | – | inconclusive: 12.6 µM [inhibitor, partial curve, poor fit] |
| CC1=C(C(=O)O)N2C(=O)C(NC(=O)c3ccccc3Cl)C2SC1 (stereo not given) | inactive: 14.5% [at 46.1 µM] | – |
| N#Cc1c(-c2ccccc2)c(-c2ccccc2)nn(CC(=O)NNC(=O)Nc2ccccc2)c1=O | – | inconclusive: 22.4 µM [inhibitor, partial curve, poor fit] |
| COc1ccc(CC(=O)Nc2nc(C)cs2)cc1OC | – | inconclusive: 14.1 µM [inhibitor, partial curve, poor fit] |
| N#Cc1cc(S(=O)(=O)c2ccccc2)c(N)[nH]c1=O | inactive: 11.8% | – |
| Cc1nc2c(-c3ccc(F)cc3)c(C)nn2c(C)c1CCC(=O)NCc1ccc(Cl)cc1 | inactive: -2.2% [at 46.1 µM] | – |
| CCOc1ccc(NC(=O)c2ccc(-c3ccccc3)s2)cc1 | inactive: -3.05% [at 46.1 µM] | – |
| COc1ccc(NC(=O)CN(C)C(=O)c2cccc(S(=O)(=O)N3CCN(Cc4ccccc4)CC3)c2)cc1 | – | inconclusive: 3.55 µM [inhibitor, partial curve, poor fit] |
| COc1ccccc1C1=NNC(=Nc2cccc(S(=O)(=O)N(C)C)c2)SC1 | – | active: 7.08 µM |
| CN(C)CCSc1nc(N)c2c3c(sc2n1)COC(C)(C)C3 | – | inconclusive: 29.1 µM [inhibitor, single point] |
| CC(=O)c1ccc(OCC(O)CN2CCN(CC(O)COc3ccc(C(C)=O)cc3)CC2)cc1 (stereo not given) | – | inconclusive: 35.5 µM [inhibitor, single point] |
| CCOc1ccc(C(=O)Nc2ccc3nc(SCc4ccccc4)sc3c2)cc1 | inactive: 1.97% [at 46.1 µM] | – |
| Cc1cccc(OC(C)C(=O)Nc2nc(-c3ccncc3)cs2)c1 (stereo not given) | – | inconclusive: 3.16 µM [inhibitor, single point] |

| Structure (SMILES) | activity change, negative = inhibition | Potency |
| --- | --- | --- |
| COc1ccc(Cn2cc(F)c(=O)n(CCC(C)C)c2=O)cc1[N+](=O)[O-] | – | inconclusive: 7.08 µM [inhibitor, partial curve, poor fit] |
| Cc1ccc(C(=O)COC(=O)c2ccc(-c3cnc4ccccc4n3)cc2)cc1C | inactive: 27.7% | – |
| CCOC(=O)C1=C(c2ccccc2)NC(SC)=C(C#N)C1c1cccnc1 (stereo not given) | inactive: 21.9% | – |
| O=S(=O)(O)c1cnccc1Nc1cccc(C(F)(F)F)c1 | – | inconclusive: 1.26 µM [inhibitor, single point] |
| CCN1CCN(S(=O)(=O)c2ccc3c(c2)OCCO3)CC1 | – | inconclusive: 6.51 µM [activator, single point] |
| CCOc1ccc(/C=N/NC(=O)c2cc3c(OC)cccc3[nH]2)cc1 | – | inconclusive: 35.5 µM [inhibitor, single point] |
| COc1ccc(S(=O)(=O)Nc2cc3c(cc2NCc2ccccc2)n(C)c(=O)n3C)cc1OC | inactive: 22.3% [at 46.1 µM] | – |
| O=C(Nc1ccc2c(c1)CCC2)c1ccc(Br)s1 | – | inconclusive: 15.8 µM [inhibitor, single point] |
| O=C(CSc1nnc(-c2ccc(OC(F)F)cc2)o1)NC(=O)NCc1ccco1 | – | inconclusive: 0.316 µM [activator, partial curve, poor fit] |
| COc1ccccc1NS(=O)(=O)c1ccc(O)c(C(=O)OCC(=O)N2CCc3ccccc32)c1 | – | inconclusive: 11.2 µM [inhibitor, single point] |
| COc1ccc(/C(C)=N/OCC(=O)Nc2nc3ccccc3s2)cc1OC | – | inconclusive: 17.8 µM [inhibitor, single point] |
| CCOC(=O)c1c(C)n(CCNC(C)=O)c2ccc(OC)cc12 | inactive: -21.9% | – |
| Cc1ccc(N2CCN(C(=S)c3ccc(N(C)C)cc3)CC2)cc1 | inactive: 16.3% | – |
| CC(C)[C@@H](N)C(=O)N/N=C/c1ccc2nccnc2c1 | – | inconclusive: 1.26 µM [activator, single point] |
| CCNc1nc(NCC)nc(SCC(C)=O)n1 | – | inconclusive: 31.6 µM [inhibitor, single point] |
| O=C(NCCc1nc2ccccc2[nH]1)c1ccc(F)cc1 | – | inconclusive: 14.6 µM [inhibitor, partial curve, poor fit] |
| CCOC(=O)c1sc(NC(=O)/C=C/c2c(F)cccc2Cl)nc1C | inactive: 3.57% | – |
| CC(=O)c1cccc(NC(=O)c2cc(=O)[nH]c3ccccc23)c1 | – | inconclusive: 14.1 µM [activator, partial curve, poor fit] |
| CCN1CCN(C(CNC(=O)c2ccc3c(c2)OCO3)c2cccnc2)CC1 (stereo not given) | inactive: 4.06% | – |
| Cc1cnc(C(=O)Nc2ccc(C(C)C)cc2)cn1 | – | inconclusive: 0.398 µM [activator, partial curve, poor fit] |
| CCOC(=O)C(=Cc1ccc(-n2cncn2)cc1)C(=O)OCC | – | inconclusive: 2.82 µM [inhibitor, full curve, poor fit] |
| CC(=O)Nc1cccc(NC(=O)c2cc(-c3cccnc3)nc3ccc(Cl)cc23)c1 | – | inconclusive: 11.2 µM [inhibitor, single point] |

From PubChem BioAssay AID540276 (National Center for Advancing Translational Sciences (NCATS), 2011)
